Data as given in patent US20160022556A1, “1,5-ANHYDRO-D-GLUCITOL-CONTAINING COLLAGEN PRODUCTION ACCELERATOR” (NATIONAL UNIVERSITY CORPORATION UNIVERSITY OF TOYOMA, priority 2013, published 2016).

Tested on: normal human fibroblasts
Assay: Type I collagen synthesis of normal human fibroblasts (ELISA of culture supernatant; protein by BCA method)
Assay type: cell-based
Settings: 24-hour culture, n = 6, untreated control 9.38 ± 0.21
Protocol: The action of 1,5-AG on the synthesis of type I collagen of dermal fibroblasts is evaluated. Specifically, normal human fibroblasts were spread on a 96-well microplate using Dulbecco's modified eagle medium (DMEM) containing 0.5% fetal bovine serum (FBS). The fibroblasts were cultured at 37° C. for 24 hours, and thereafter the medium was exchanged with a 0.5% FBS-containing DMEM containing a given concentration of samples. As a positive control (P.C.), the same treatment was carried out with magnesium ascorbyl phosphate. After the 24-hour culture in the sample-containing medium, the culture supernatant was collected and subjected to ELISA. Also, the amount of protein was measured in accordance with bicinchoninic acid (BCA) method with PIERCE (manufactured by Pierce Biotechnology Inc.).
The culture supernatant and the collagen solutions for calibration curve were each dispensed in each well of high-adsorbent ELISA plate, and allowed to coat at 4° C. over one day and night. Thereafter, the coated plate was blocked at 37° C. for 1 hour with a 1% bovine serum albumin (BSA) solution. […] Next, 0.3 mg/mL of phosphate-citrate buffer (0.1 M, pH 4.0) containing 2,2′-azinobis(3-ethylbenzothiazoline-6-sulfonic acid)diammonium salt (ABTS) and a 0.03% hydrogen peroxide was added to each well and allowed to react for 20 minutes, and the absorbance of the reaction mixture was measured at 405 nm with a microplate reader.
The amount of the collagen in the culture supernatant was calculated from the calibration curve prepared from commercially available collagen. By dividing the amount of collagen in the medium by the amount of proteins in all the cells, the amount of collagen synthesized per unit protein amount was calculated. The amount of collagen synthesized at each concentration was subjected to a significance test using a Student-t test, and a difference with an untreated control was evaluated.

Q: Which results are given for `OC[C@H]1OC[C@H](O)[C@@H](O)[C@@H]1O` [1,5-AG, 1,5-anhydro-D-glucitol]?
A: Amount of Protein, Mean S.D. (313 μg/mL sample): 9.38 ± 0.44 μg/well; Amount of Protein, Mean S.D. (625 μg/mL sample): 9.18 ± 0.46 μg/well; Amount of Protein, Mean S.D. (1250 μg/mL sample): 9.09 ± 0.31 μg/well
